For assay [1], the target named is Y1 receptor, YFP BiFC fusion (rat) (UniProt P21555). Description: split reporter; YFP BiFC system, basal and NPY-stimulated, quantitative data in Supplementary Fig. 1.
A further assay concerns the target Y1 6A receptor-Gc (rat) (UniProt P21555). The assay can be described thus: split reporter; sfGFP BiFC (receptor-Gc with β-arrestin-Gn) in live stable HEK293 cells, confocal microscopy at 37 °C, control or 100 nM NPY for 60 min.
Assay [2] deals with Y1 receptor-Gc (rat Y1 receptor fused at the C terminus to sfGFP fragment 155-238) (rat) (UniProt P21555). Described as above.

Chains of the proteins cited; added tags and fusions are not shown. Lines headed by an entry give the natural chain unless they say otherwise; changes in a name come on top. A line that says so, or that is headed by a name, gives the form on record, which may keep a tag or linker.
UniProt P21555: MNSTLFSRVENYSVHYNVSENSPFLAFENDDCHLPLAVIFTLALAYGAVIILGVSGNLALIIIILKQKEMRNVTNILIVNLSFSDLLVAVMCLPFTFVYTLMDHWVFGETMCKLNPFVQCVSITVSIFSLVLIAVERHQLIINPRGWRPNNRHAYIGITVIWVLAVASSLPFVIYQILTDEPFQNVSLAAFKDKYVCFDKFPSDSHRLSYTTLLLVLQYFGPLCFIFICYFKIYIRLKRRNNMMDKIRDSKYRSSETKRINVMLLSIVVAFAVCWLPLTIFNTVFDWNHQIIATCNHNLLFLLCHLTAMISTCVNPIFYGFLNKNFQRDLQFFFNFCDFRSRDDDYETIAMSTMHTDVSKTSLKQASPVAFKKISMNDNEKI
Y1 6A receptor-Gc (P21555, form named): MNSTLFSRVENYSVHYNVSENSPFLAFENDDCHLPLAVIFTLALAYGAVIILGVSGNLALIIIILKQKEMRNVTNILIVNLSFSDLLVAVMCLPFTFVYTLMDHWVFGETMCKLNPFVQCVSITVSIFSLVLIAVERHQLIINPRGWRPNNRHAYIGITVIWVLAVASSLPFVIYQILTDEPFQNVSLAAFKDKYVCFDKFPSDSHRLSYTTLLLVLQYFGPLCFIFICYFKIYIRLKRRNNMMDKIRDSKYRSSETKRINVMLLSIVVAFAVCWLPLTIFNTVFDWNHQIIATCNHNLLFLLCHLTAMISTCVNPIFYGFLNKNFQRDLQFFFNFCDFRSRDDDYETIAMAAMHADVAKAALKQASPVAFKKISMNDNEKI
UniProt P49407: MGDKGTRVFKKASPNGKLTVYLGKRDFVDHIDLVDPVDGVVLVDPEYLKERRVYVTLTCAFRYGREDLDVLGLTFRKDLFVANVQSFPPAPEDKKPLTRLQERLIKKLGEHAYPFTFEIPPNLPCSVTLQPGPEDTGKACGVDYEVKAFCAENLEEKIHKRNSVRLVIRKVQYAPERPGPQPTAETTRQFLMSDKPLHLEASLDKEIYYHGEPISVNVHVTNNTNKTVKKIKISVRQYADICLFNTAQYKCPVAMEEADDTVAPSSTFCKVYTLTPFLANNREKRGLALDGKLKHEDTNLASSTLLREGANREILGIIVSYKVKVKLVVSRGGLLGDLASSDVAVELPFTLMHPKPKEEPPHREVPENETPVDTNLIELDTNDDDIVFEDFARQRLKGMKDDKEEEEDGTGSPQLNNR

Results are given in words; binding and its absence hold for the method and conditions named. In cells and extracts the contact can be indirect. Some entries that bind do so weakly or less than the wild type.

Consider “β-arrestin1, YFP BiFC fusion (from UniProt P49407 1-418)”, for which the binding result in assay [1] is listed as “binds”. As to “β-arrestin1-Gn (human β-arrestin1 fused at the C terminus to sfGFP fragment 2-172) (from UniProt P49407 1-418)”, the binding result is recorded as “no binding” in the assay with Y1 6A receptor-Gc (rat) and “binds” in assay [2].
